Results taken from PubChem BioAssay AID1794845 (National Center for Advancing Translational Sciences (NCATS), 2023).
Among all 6,900 compounds or so, fewer than 10 were called active. Calls come from the whole dose curve; as a rule, active = well fitted curve in the direction sought with a large enough effect; inconclusive = small, poorly fitted or top-dose-only effect, or another doubt; inactive = no such curve, though single readings can be large or run the other way. This is one part of the list.

Protein sequences, listed by entry. Tags and fused reporters are not part of them. Lines headed by an entry give the natural chain unless they say otherwise; changes in a name come on top.
UniProt C7C422: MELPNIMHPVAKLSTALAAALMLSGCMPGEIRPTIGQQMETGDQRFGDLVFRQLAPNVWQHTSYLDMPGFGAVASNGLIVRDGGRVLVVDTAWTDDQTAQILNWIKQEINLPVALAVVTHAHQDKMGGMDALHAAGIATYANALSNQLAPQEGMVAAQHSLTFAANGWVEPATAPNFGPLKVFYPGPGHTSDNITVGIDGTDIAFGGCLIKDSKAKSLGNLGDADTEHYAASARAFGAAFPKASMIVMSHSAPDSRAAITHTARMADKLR

biological target: Metallo-beta-lactamase type 2 (Klebsiella pneumoniae) (UniProt C7C422); test: qHTS to identify inhibitors of the New Delhi Metallo-beta-lactamase (NDM): primary screen against the NCATS Gemini Collection; settings: NDM-1 enzyme, meropenem hydrolysis, absorbance 300 nm; at 38.4 µM (top of the series) unless noted; note: % of control where 0% means no effect
From the text: Assay Submitter (PI): James Inglese Ph.D., Patricia Dranchak Ph.D., Mahesh Aitha Ph.D. Assay Development and Screening Technology Laboratory (ADST) National Center for Advancing Translational Sciences (NCATS), Rockville, MD National Institute of Health (NIH), Bethesda, Maryland The metallo-beta-lactamases (MBL) are a main antibiotic resistance mechanism evolved by bacteria. There is an urgent clinical need for MBL inhibitors to mitigate this growing threat. To support a machine-based learning study, qHTS has been used to experimentally test inhibitors identified by prediction tools.
PROTOCOL TABLE (as described by Inglese et al., 2007) SEQUENCE No. (e.g., 1, 2, 3, etc.); […] (e.g., enzyme, Incubation, Reagent, etc.); VALUE; DESCRIPTION 1; NDM-1; 4 uL of 3 nM enzyme [2 nM final] in 50 mM HEPES (pH 7.0), 1 uM […], 0.01% Tween20; Use BioRaptr to dispense into Aurora black, clear bottom low base 1536-well plates 2; Compounds; 23 nL; Use Pin Tool (Wako) to transfer DMSO control and library compounds in DMSO 3; Incubate; >30 min 4; Reagent; 2 uL of 150 uM meropenem [50 uM final] 5; Incubate; 30 min. 6; Detector; Absorbance at 300 nm (bandwidth = 5 nm, 25 flashes/well) on Tecan Infinity NOTES (numbers refer to sequence above) 1; Column 1 of each plate received assay buffer without enzyme and columns 2-48 received enzyme for a final assay concentration of 2 nM. 2; Control plate contained DMSO in columns 1, 2, 3, and 4. 3; Compound interaction with enzyme. 4; Meropenem substrate was prepared in the same assay buffer as step 1 for a final assay concentration of 50 uM and added to all wells across the assay plates. 5; Substrate interaction with enzyme, plateau phase of kinetics. 6; Default reader settings were applied for absorbance read at 300 nm, bandwidth = 5 nm, 25 flashes/well. References: Inglese J, Shamu CE, Guy RK. 2007. Reporting data from high-throughput screening of small-molecule libraries. Nat Chem Biol. doi:10.1038/nchembio0807-438 Yasgar A, Shinn P, Jadhav A, Auld D, Michael S, Zheng W, Austin CP, Inglese J, Simeonov A. 2008. Compound Management for Quantitative High-Throughput Screening. J Lab Autom 13:79 - 89. doi:10.1016/j.jala.2007.12.004

Activity % (negative = inhibition), inactive:
CC(=O)N1CCCC1c1nc(C2CN(Cc3cc(F)c(F)cc3F)C2)no1 (stereo not drawn) 4.71%
Cc1ccc(S(=O)(=O)N2CCC3(CC2)SCC(=O)N3Cc2ccco2)cc1 22.3%
COc1ccc(-c2nc(C)nc3c2CCN([S+](=O)([O-])c2cccc(OC)c2)CC3)cc1 14%
O=C(c1ccoc1)N1CC[C@@H](c2ccc3ccccc3c2)[C@H](O)C1 -5.88%
CC(=O)Oc1c(-c2ccc(NC(=O)c3ccco3)cc2)c(-c2cccc(F)c2)nn1-c1ccc(C)cc1 19.1%
Cc1cccc(OCCc2noc(C3CCN(C(=O)NC4CCCCC4)C3)n2)c1 (stereo not drawn) 12.9%
CCCS(=O)(=O)N1CCC(N2C(=O)[C@H](OCCOC)[C@@H]2c2ccncc2)CC1 -2.75%
O=C1CCC2(CCN1)CCN(S(=O)(=O)c1cccnc1)CC2 -0.426%
Cc1cc(C)cc(Nc2nc(C)cc(=O)n2CC(=O)Nc2cccc(C(F)(F)F)c2)c1 9.31%
COC(C)c1nc(C2CCOCC2)nn1Cc1ccc2c(c1)OCO2 (stereo not drawn) 1.02%
COc1ccc(-c2nc3c(c(=O)[nH]2)CCN(C(=O)c2ccccc2)C3)cc1 14%
Cc1noc(C)c1[S+](=O)([O-])N1CCn2c(nn(-c3ccc(C(F)(F)F)cc3)c2=O)C1 8.21%
Cn1nc(C(=O)N2CCC3(CC2)CC(Cc2nc(C4CC4)no2)CCO3)c2ccccc21 (stereo not drawn) 5.94%
COCC(=O)N1CCN(C(C)=O)C[C@@H]1C(=O)N[C@H](C)C(=O)OC 3.23% [at 57.5 µM]
COc1ccc(-c2ccc3ccccc3n2)c(OC)c1OC 7.47%
Cn1cncc1CN1CCC2(CCN(C3CCOCC3)CC2)C(CO)C1 (stereo not drawn) 0.85%
O=C1CCCCCN1C1CCN(Cc2ccsc2)CC1 0.058% [at 57.5 µM]
Cc1nc(C)c(C(=O)N2CCCC(c3nn(C)c(=O)n3C(C)C)C2)s1 (stereo not drawn) -0.353%
CCCS(=O)(=O)N1Cc2c(ncn2Cc2ccc(Cl)cc2)C[C@H]1C(=O)OC 11.9% [at 57.5 µM]
O=C1CC2CCN([S+](=O)([O-])c3cccs3)CC2CCN1 (stereo not drawn) 57.9%
Cc1ccc(CCC(=O)N2C[C@@H](CN3CCOCC3)[C@@H](CO)C2)cc1 16.5%
CCN1CCN(C(=O)c2ccc3nc(-c4cccc(C)n4)oc3c2)CC1 -1.78% [at 57.5 µM]
COCc1cc([C@H]2N[C@@](C)(C(=O)OC)[C@H]3C(=O)N(C)C(=O)[C@@H]23)ccc1OC 3.94%

Three compounds out of the list, ordered by count of non-hydrogen atoms, rising:
Activity % (negative = inhibition), inactive:
O=C1CC2CCN([S+](=O)([O-])c3cccs3)CC2CCN1 (stereo not drawn) 57.9%
Cn1cncc1CN1CCC2(CCN(C3CCOCC3)CC2)C(CO)C1 (stereo not drawn) 0.85%
COc1ccc(-c2nc3c(c(=O)[nH]2)CCN(C(=O)c2ccccc2)C3)cc1 14%
